## Primary screen of a compound library

Amino acid sequences for entries named in this document (tags omitted). Residues count along the entry.
UniProt Q4DA54, 1-478: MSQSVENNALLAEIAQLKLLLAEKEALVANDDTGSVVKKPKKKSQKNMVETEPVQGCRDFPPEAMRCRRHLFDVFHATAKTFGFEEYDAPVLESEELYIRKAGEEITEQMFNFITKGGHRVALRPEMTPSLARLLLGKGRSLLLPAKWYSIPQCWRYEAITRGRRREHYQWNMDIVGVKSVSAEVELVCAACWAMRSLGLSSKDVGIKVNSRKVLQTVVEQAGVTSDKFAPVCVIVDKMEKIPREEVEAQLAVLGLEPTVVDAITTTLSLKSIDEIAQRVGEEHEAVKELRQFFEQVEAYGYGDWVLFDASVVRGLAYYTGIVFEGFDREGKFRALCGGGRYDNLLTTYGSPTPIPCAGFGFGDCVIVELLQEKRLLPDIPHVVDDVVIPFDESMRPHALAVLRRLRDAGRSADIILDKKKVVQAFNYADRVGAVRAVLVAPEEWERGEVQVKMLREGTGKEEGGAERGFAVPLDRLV
UniProt A4I591, 1-473: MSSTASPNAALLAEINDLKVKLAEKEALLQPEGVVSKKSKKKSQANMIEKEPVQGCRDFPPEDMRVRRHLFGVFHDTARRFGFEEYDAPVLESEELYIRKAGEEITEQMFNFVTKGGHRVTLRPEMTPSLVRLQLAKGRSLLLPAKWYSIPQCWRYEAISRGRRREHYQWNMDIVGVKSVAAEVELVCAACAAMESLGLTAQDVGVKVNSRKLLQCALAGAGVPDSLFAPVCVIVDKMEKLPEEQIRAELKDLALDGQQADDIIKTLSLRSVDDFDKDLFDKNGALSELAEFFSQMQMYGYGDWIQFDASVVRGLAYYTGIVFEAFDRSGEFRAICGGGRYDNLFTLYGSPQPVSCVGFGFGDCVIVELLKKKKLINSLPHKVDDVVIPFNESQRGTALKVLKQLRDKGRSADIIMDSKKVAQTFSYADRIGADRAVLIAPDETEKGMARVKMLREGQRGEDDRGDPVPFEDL
UniProt Q8IDJ8, 1-583: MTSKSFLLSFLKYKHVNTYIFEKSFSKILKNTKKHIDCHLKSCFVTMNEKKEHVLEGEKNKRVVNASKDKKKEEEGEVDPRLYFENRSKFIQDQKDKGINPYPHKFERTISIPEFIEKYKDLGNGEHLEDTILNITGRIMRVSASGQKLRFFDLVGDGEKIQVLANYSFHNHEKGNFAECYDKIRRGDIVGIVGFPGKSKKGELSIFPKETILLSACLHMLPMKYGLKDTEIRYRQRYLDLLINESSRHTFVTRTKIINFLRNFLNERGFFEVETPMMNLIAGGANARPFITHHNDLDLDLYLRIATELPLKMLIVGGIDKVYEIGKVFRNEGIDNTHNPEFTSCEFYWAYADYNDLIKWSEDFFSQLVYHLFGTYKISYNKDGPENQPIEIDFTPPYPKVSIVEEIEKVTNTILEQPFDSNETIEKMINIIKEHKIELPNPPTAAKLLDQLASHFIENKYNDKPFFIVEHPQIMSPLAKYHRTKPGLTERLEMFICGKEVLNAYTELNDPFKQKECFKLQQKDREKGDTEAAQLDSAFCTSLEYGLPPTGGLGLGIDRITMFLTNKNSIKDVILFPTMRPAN

Source: ChEMBL document CHEMBL3988442, “University of Dundee, Small-Polar-MMV Screening Library” (2021).

Each number is a percent effect as filed. How 0% and 100% were set is not recorded. Most values in the screen are low, and negative values occur. This is an unselected part of the compounds tested.

TcHisRS: 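Histidine-tRNA ligase, Trypanosoma cruzi CL Brener (UniProt Q4DA54). Enzyme assay of histidyl-tRNA synthetase; the read-out is not stated. Compounds at 30 µM. The record gives no direction; compounds that gave an IC50 in retests scored well above the rest, so higher reads as stronger inhibition. Of about 69,000 compounds tested this way, about 31 (0.045%) reached 50% or more in at least one test.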
LiHisRS: 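Enzyme assay of histidyl-tRNA synthetase; the read-out is not stated. Target: Histidine-tRNA ligase, Leishmania infantum (UniProt A4I591). Compounds at 30 µM. Higher reads as stronger inhibition (inferred: compounds with an IC50 in retests scored well above the rest). The assay is labelled LdHisRS but filed under L. infantum. About 69,000 compounds were tested under these conditions; 0.6% (about 410) showed 50% or more at least once.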
PfKRS1: 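Lysine-tRNA ligase, Plasmodium falciparum 3D7 (UniProt Q8IDJ8). Enzyme assay of the cytosolic lysyl-tRNA synthetase in 384-well plates, read by luminescence. Concentration: 30 µM. Direction is inferred from only a few compounds that gave an IC50; most scored high, so higher reads as stronger inhibition. Size under these conditions: about 69,000 compounds, about 49 of them at 50% or above in at least one test.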

{"structure": "COc1ccccc1OCc1cc(C(=O)N2CCN(C(C)=O)CC2)n[nH]1", "TcHisRS": 6.349, "LiHisRS": 3.03, "PfKRS1": 5.198}
{"structure": "COc1ccccc1OC1CN(C(=O)C2CNCC(=O)N2)C1", "stereo": "stereo not shown", "TcHisRS": 7.895, "LiHisRS": 15.83, "PfKRS1": 2.609}
{"structure": "NC(=O)c1ccc(C2CCCNC2)nc1", "stereo": "stereo not shown", "TcHisRS": 2.281, "LiHisRS": 3.448, "PfKRS1": 0.7597}
{"structure": "O=C(c1ccsc1)N1CCC2(CCN(Cc3ccccn3)C2=O)C1", "stereo": "stereo not shown", "TcHisRS": 6.03, "LiHisRS": 15.96, "PfKRS1": 1.687}
{"structure": "O=C(O)C1(Cc2ccc(F)cc2F)CCCN(Cc2ccccn2)C1", "stereo": "stereo not shown", "TcHisRS": 6.024, "LiHisRS": 14, "PfKRS1": -1.309}
{"structure": "CCS(=O)(=O)c1ccc(N2CCC(NC(=O)c3cnn(C)c3)CC2)cc1", "TcHisRS": 1.245, "LiHisRS": 32.04, "PfKRS1": 0.2002}
{"structure": "Cc1ccc(CN2CCc3nc(C(C)C)nc(O)c3CC2)s1", "TcHisRS": 3.077, "LiHisRS": 12.68, "PfKRS1": -0.9298}
{"structure": "Cc1cnc2n1CCN(C)C21CCN(C(=O)CC(C)C)CC1", "TcHisRS": 7.027, "LiHisRS": 20.75, "PfKRS1": 6.739}
{"structure": "CN(C)c1ncc(-c2cncnc2)c(C2CNCCO2)n1", "stereo": "stereo not shown", "TcHisRS": 2.571, "LiHisRS": 4.027, "PfKRS1": -0.7227}
{"structure": "Cc1ccc(-c2n[nH]cc2CN(Cc2nccn2C)C(C)C)cc1C", "TcHisRS": 0.6369, "LiHisRS": 1.408, "PfKRS1": -1.502}
{"structure": "CC1CN(CC(=O)NC(=O)NCc2cccs2)CCN1CC(F)(F)F", "stereo": "stereo not shown", "TcHisRS": 2, "LiHisRS": -1.37, "PfKRS1": 2.977}
{"structure": "O=C(N1CCCC1)N1C[C@@H]2CN(Cc3ccoc3)CCO[C@@H]2C1", "TcHisRS": 1.02, "LiHisRS": 17, "PfKRS1": -0.1865}
{"structure": "CCOCCN1CCN(C(C)C(=O)Nc2ccnn2C(C)C)CC1", "stereo": "stereo not shown", "TcHisRS": -2.174, "LiHisRS": 6.061, "PfKRS1": -1.742}
{"structure": "CN(C)CCNC(=O)c1ccc2ccc(N(C)CC3CC3)n2c1", "TcHisRS": -9.135, "LiHisRS": 39.45, "PfKRS1": -3.586}
{"structure": "COc1ccc(OCCCNC(=O)NCc2csc(C)n2)cc1", "TcHisRS": 1.149, "LiHisRS": 24.62, "PfKRS1": 3.388}
{"structure": "Cc1ccc(N2CCCC(NCc3cc(C)on3)C2)nn1", "stereo": "stereo not shown", "TcHisRS": 13.39, "LiHisRS": 32.48, "PfKRS1": 0.9379}
{"structure": "CCOC(=O)c1coc(N2CCN(Cc3cc(C)cc(C)c3)C(=O)C2)n1", "TcHisRS": 12.94, "LiHisRS": 18.25, "PfKRS1": 2.547}
{"structure": "CCNc1ncc(C(=O)NCCCc2ccncc2)cn1", "TcHisRS": 1.932, "LiHisRS": 5.833, "PfKRS1": 3.245}
{"structure": "Cn1cc(-c2c(C#N)c(N)nc3c2CCc2[nH]ccc2-3)cn1", "TcHisRS": 20, "LiHisRS": 97.44, "PfKRS1": 4.362}

Once more, the final 2:

| structure | TcHisRS | LiHisRS | PfKRS1 |
|---|---|---|---|
| `CCNc1ncc(C(=O)NCCCc2ccncc2)cn1` | 1.932 | 5.833 | 3.245 |
| `Cn1cc(-c2c(C#N)c(N)nc3c2CCc2[nH]ccc2-3)cn1` | 20 | 97.44 | 4.362 |